Experimental data: patent US20220213181A1
Changes are numbered by the printed parent chain. Results are given in words; binding and its absence hold for the method and conditions named. Some entries that bind do so weakly or less than the wild type. Sequences can lack the tags named with a protein. Values belong to the binder of their own block, whether it stands above or below them.

Target: T1, Human ANGPTL4(26-161)-FLAG-His6-Avi (human)
T1 sequence (chain, biotin on the C-terminal Avi tag (BirA) where the protein is immobilised): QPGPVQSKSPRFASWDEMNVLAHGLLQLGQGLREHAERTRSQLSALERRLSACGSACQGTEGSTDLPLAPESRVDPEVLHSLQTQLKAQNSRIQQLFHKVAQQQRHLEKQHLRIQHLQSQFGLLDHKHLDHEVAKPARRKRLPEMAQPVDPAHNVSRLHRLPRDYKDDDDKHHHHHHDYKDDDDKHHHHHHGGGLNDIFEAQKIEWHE
Assay: direct ELISA on MSD streptavidin plate, biotinylated antigen immobilized at 1 nM, antibody at 1 nM, Sulfo-tagged anti-human IgG detection

B2: NEG315 (antibody, human IgG1, kappa, V domains shown)
VH: QVQLVQSGAEVKKPGASVKVSCKASGYTFTNYWITWVRQAPGQGLEWMGDFYPGGGNTNYNAKLQGRVTLTVDTSTSTAYMELRSLRSDDTAVYYCARSPPQVAPFDYWGQGTLVTVSS
VL: DIQMTQSPSSLSASVGDRVTITCQASEYIYNWLGWYQQKPGKAPKLLISGASGLETGVPSRFSGSGSGKDYTFTISSLQPEDIATYYCQQYWSTPWTFGQGTKLEIKR
binding: binds

B3: NEG313 (antibody, human IgG1, kappa, V domains shown)
VH: B2 VH with T30N, N57S
VL: B2 VL with E27D, N31H
binding: binds

B5: NEG278 (antibody, human IgG1, kappa, V domains shown)
VH: QVQLVQSGAEVKKPGASVKVSCKASAYTFTSSWMQWVRQAPGQGLEWMGEIDPSDNYANYNQKFQGRVTLTVDTSTSTAYMELSSLRSEDTAVYYCASGSYFSNFFDYWGQGTLVTVSS
VL: EIVMTQSPATLSVSPGERATLSCKASQDIGSNLNWLQQKPGQAPRRLIYAASVREPGIPARFSGSRSGSEYTLTISSLQSEDFAVYYCLQYASSPWTFGQGTKVEIKR
binding: binds

B6: NEG310 (antibody, human IgG1, kappa, V domains shown)
VH: QVQLVQSGAEVKKPGASVKVSCKASGYTFTSYTMHWVRQAPGQGLEWMGYINPSSGYTKYNQKFQGRVTMTADKSTSTAYMELSSLRSEDTAVYYCAEGWLLLAMDYWGQGTLVTVSS
VL: EAVVTQSPATLSLSPGERATLSCRSSTGAVTTSNYAIWVQEKPGQAPRGLIGGTNNRAPGIPARFSGSLSGDDATLTISSLQPEDFAVYFCALWYSDHWVFGQGTKVEIKR
binding: binds

Next, values leading:

binding: binds
B1: NEG318 (antibody, human IgG1, kappa, V domains shown)
VH: B2 VH with N31S, Y32F, F51I, G56A, N57T, A62E, A104G
VL: B2 VL with E27D, N31H, G34A, G53S, T94I

binding: binds
B4: NEG319 (antibody, human IgG1, kappa, V domains shown)
VH: B2 VH with N31S, Y32F, F51I, G56A, A62E, A104G
VL: B2 VL with Y30I, G34A, S52T, T94I
